Article PMC10907362
No constants are given. Whether binding was seen depends on the method and setting. In cells and extracts the contact can be indirect. These calls come from enrichment with a bait or labelling near it, and not all partners need be listed. Sequences can lack the tags named with a protein.

The chains behind the UniProt entries cited, without tags or fusion partners. Where a name states a change or a piece, a line headed by the entry shows the natural chain unless it says otherwise. A line that says so, or that is headed by a name, gives the form on record, which may keep a tag or linker.
UniProt P12814: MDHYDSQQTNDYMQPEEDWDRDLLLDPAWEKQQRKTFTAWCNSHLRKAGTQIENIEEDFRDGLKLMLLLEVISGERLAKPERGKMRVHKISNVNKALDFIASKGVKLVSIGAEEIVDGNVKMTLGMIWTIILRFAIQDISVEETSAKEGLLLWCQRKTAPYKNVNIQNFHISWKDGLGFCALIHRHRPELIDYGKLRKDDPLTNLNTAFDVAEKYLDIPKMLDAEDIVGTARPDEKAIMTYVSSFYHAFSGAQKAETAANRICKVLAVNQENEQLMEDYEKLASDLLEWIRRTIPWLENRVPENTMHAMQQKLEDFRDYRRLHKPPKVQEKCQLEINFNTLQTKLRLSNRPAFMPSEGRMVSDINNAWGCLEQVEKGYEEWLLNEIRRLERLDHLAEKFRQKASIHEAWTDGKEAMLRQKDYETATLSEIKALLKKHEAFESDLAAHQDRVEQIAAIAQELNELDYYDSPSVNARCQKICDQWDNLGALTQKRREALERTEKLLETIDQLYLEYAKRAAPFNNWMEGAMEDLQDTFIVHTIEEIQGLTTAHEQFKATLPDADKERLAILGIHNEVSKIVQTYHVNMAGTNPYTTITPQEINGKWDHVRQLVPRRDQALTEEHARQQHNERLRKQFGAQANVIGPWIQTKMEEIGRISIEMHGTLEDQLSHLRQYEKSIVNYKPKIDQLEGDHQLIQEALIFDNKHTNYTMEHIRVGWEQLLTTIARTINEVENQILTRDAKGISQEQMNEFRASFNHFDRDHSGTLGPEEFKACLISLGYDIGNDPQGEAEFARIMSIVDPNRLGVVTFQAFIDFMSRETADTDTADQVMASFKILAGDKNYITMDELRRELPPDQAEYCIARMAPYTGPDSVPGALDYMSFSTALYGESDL
UniProt P07355: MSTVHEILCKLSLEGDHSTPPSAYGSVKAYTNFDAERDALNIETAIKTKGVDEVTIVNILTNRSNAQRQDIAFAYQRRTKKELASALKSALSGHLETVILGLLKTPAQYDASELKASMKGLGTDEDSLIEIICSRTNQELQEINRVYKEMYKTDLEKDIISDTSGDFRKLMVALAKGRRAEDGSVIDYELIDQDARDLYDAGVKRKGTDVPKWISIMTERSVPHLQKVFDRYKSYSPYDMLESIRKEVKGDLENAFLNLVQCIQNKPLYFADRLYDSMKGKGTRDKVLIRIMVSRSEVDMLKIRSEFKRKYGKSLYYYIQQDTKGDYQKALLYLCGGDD
UniProt P47756: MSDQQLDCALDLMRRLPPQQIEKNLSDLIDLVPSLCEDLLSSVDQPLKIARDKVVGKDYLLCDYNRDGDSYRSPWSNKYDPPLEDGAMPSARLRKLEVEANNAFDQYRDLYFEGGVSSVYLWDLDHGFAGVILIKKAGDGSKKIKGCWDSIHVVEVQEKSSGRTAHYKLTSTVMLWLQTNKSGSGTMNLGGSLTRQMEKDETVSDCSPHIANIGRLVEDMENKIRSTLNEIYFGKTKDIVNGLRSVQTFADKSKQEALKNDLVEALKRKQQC
UniProt Q03135: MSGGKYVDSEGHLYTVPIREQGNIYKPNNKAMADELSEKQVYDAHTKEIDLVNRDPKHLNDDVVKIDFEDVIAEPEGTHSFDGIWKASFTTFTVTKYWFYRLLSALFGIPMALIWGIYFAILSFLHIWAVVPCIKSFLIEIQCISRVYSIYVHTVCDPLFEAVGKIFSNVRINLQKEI
UniProt Q8WWP7: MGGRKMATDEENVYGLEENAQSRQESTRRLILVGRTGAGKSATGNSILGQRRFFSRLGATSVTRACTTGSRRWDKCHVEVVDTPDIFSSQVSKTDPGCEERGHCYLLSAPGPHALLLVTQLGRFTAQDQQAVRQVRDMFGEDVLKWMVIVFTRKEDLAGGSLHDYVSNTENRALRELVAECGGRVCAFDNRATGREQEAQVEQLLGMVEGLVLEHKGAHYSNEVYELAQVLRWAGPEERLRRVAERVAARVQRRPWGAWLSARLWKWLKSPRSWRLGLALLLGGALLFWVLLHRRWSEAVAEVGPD
Isoform 2 of Spectrin beta chain, non-erythrocytic 1 (Q01082-3, form named): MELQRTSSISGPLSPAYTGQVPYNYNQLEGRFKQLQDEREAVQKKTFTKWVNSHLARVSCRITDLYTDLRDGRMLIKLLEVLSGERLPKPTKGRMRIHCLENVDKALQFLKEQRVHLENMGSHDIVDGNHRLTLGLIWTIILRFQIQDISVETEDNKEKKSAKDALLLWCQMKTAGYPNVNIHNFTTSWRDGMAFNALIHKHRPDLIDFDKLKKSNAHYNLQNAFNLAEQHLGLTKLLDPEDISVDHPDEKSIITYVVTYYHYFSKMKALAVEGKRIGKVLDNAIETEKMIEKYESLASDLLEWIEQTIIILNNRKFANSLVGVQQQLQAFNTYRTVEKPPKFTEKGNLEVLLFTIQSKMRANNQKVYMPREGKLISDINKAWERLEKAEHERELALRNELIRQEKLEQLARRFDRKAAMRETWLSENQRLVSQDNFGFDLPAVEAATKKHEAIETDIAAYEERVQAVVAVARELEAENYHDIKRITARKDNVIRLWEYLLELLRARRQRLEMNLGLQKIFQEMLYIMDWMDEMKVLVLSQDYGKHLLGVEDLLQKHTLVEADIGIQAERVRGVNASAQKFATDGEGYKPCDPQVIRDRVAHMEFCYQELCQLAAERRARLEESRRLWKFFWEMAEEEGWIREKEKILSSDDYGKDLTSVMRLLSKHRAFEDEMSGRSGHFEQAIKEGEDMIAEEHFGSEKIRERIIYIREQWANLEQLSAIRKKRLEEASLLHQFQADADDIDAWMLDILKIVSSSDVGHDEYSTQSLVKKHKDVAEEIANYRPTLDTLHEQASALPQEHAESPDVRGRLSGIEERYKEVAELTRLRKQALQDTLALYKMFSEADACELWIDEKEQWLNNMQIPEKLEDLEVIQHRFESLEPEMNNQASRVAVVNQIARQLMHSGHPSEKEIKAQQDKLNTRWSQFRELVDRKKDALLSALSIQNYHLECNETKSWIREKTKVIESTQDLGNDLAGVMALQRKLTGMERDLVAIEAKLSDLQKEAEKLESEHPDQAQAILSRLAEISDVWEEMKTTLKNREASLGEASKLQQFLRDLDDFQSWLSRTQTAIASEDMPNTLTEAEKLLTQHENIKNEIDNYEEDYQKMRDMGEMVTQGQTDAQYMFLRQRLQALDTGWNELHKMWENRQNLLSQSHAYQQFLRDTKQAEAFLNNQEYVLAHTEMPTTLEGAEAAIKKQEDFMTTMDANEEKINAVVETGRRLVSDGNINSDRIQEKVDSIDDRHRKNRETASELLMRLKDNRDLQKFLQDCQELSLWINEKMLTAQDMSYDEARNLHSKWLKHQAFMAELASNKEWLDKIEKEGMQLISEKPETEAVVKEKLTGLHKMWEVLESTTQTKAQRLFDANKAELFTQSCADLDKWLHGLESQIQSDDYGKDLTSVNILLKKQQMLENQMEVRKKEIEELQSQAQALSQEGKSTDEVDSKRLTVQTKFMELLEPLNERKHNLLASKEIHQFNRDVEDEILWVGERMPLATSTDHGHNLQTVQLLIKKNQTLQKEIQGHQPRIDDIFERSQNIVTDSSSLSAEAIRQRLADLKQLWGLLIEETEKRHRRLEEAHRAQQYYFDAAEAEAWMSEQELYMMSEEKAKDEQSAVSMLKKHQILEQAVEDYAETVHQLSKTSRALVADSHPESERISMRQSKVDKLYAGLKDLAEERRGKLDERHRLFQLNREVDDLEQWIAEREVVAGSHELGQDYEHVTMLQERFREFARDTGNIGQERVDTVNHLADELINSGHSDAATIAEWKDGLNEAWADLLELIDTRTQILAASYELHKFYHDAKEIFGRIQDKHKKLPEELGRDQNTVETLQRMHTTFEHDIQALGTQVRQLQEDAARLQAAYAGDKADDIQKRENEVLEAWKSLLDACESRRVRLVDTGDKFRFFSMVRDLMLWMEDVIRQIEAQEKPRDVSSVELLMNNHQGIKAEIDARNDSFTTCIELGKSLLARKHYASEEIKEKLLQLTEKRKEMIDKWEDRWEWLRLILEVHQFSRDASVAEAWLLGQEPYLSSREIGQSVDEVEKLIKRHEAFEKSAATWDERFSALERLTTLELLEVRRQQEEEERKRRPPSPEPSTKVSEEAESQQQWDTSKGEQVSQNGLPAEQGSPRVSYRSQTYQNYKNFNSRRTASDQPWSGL
UniProt P61204: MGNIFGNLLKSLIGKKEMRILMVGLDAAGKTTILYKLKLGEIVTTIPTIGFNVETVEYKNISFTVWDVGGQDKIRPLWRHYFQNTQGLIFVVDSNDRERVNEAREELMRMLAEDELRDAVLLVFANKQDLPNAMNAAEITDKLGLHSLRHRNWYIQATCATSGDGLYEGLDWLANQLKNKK
UniProt P23528: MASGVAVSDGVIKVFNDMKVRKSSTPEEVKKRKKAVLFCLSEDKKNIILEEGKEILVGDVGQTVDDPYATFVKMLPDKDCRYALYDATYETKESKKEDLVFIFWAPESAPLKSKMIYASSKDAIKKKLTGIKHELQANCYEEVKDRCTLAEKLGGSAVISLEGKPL
UniProt P48681: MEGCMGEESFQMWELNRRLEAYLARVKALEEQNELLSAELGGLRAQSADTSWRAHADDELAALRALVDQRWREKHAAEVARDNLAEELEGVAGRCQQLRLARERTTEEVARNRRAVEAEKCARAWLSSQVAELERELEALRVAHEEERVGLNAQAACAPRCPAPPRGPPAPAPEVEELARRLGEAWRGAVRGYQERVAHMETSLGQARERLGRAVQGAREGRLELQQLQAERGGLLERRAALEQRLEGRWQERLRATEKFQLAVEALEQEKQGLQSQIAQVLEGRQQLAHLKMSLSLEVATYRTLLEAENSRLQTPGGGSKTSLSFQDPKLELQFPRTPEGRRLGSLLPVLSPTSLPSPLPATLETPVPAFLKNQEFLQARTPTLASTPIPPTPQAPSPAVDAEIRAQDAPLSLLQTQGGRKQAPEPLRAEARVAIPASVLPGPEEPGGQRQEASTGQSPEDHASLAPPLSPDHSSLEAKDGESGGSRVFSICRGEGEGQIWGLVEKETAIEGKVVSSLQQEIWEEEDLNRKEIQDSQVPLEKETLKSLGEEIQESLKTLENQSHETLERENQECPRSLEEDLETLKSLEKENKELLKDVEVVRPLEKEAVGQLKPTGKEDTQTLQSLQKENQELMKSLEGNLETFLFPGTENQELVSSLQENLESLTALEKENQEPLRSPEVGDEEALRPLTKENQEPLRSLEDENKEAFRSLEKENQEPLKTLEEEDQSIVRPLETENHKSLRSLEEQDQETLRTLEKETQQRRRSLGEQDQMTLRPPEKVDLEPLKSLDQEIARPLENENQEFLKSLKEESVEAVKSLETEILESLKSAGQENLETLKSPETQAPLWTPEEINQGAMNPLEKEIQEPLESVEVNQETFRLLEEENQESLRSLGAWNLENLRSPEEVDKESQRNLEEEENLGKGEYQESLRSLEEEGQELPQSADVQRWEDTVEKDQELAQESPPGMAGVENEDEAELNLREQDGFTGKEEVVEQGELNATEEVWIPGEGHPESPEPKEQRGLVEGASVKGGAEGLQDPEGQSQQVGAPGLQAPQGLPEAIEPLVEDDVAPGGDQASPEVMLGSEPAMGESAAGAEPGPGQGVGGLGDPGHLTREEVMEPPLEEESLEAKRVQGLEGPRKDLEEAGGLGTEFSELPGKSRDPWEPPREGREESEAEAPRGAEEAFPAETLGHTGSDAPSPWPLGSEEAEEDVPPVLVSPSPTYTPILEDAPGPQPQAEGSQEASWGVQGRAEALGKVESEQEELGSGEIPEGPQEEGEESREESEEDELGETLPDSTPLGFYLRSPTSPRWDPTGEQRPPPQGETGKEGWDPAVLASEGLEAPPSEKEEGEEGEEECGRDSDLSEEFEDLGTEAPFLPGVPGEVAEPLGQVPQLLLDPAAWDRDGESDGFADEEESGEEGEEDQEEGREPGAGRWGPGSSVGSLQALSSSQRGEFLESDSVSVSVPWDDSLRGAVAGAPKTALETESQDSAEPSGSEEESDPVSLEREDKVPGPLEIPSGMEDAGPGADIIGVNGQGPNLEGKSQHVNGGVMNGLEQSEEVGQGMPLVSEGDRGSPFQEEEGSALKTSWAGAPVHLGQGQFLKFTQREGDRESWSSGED
UniProt P07437: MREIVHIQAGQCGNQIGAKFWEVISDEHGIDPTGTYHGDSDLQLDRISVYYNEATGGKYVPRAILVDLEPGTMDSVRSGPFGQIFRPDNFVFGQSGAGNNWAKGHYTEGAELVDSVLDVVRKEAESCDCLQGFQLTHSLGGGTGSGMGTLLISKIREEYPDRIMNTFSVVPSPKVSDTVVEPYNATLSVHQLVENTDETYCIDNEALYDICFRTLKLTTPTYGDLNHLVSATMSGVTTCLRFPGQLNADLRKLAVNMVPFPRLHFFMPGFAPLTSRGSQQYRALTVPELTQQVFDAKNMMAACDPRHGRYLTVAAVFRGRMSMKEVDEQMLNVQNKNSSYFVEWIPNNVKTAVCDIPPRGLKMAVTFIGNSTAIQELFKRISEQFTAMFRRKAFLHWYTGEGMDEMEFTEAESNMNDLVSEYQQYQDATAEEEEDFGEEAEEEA

Biological target: T1, Flag-USP40 (in HLMVECs) (human) (UniProt Q9NVE5)
T1 sequence: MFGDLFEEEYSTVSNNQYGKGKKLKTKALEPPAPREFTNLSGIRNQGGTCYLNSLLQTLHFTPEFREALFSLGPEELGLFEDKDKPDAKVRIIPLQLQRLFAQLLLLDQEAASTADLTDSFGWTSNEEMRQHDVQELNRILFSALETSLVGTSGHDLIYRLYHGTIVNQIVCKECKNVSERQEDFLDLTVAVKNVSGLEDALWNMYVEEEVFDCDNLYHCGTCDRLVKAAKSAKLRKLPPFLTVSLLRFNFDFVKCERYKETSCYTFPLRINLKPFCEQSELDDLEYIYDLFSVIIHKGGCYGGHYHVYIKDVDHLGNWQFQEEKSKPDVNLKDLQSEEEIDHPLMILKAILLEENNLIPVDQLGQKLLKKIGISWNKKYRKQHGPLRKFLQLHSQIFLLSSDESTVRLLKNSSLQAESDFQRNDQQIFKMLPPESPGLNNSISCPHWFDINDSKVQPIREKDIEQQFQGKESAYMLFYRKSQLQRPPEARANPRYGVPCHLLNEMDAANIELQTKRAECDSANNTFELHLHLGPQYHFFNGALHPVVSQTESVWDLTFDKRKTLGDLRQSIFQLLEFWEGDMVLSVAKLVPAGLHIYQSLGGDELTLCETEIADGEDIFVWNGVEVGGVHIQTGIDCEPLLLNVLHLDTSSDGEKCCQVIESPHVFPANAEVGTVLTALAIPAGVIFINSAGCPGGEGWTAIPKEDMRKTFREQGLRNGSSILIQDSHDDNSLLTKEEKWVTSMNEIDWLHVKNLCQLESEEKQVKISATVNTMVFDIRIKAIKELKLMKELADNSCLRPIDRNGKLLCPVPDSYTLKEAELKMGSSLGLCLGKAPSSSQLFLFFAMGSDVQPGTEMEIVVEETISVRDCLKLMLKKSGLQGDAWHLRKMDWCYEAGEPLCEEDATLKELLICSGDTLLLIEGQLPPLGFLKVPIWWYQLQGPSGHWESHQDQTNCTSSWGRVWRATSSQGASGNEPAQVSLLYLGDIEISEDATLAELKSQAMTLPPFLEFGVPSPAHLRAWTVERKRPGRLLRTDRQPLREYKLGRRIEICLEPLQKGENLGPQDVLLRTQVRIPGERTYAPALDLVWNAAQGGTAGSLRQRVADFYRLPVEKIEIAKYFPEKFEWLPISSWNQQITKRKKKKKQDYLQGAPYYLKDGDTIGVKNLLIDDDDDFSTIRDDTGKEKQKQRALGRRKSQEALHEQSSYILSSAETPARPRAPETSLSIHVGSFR
Assay: affinity purification with mass spectrometry; Flag-USP40 immunoprecipitated from transfected HLMVECs with FLAG-M2 affinity gel; eluted under reducing conditions, SDS-PAGE, Coomassie, bands excised, in-gel trypsin digestion, LC-MS

Row | binding | Substance
1 | binds | 78 kDa glucose-regulated protein (from UniProt P11021 19-654)
2 | binds | Alpha-actinin-1 (from UniProt P12814 1-892)
3 | binds | Annexin A2 (from UniProt P07355 1-339)
4 | binds | Capping protein (Actin filament) muscle Z-line, beta (from UniProt P47756 1-272)
5 | binds | Caveolin-1 (from UniProt Q03135 1-178)
6 | binds | Clathrin heavy chain 1 (from UniProt Q00610 1-1675)
7 | binds | Dedicator of cytokinesis protein 4 (from UniProt Q8N1I0 1-1966)
8 | binds | E3 ubiquitin-protein ligase TRIM21 (from UniProt P19474 1-475)
9 | binds | F-actin-capping protein subunit alpha-2 (from UniProt P47755 1-286)
10 | binds | Filaggrin-2 (from UniProt Q5D862 1-2391)
11 | binds | Filamin-A (from UniProt P21333 1-2647)
12 | binds | Filamin-C (from UniProt Q14315 1-2725)
13 | binds | GTPase IMAP family member 1 (from UniProt Q8WWP7 1-306)
14 | binds | Gelsolin (from UniProt P06396 28-782)
15 | binds | Glia maturation factor beta (from UniProt P60983 1-142)
16 | binds | Heat shock cognate 71 kDa protein (from UniProt P11142 1-646)
17 | binds | Heat shock protein HSP 90-beta (endogenous, HLMVEC) (from UniProt P08238 1-724)

Row | binding | Substance
18 | binds | Isoform 2 of Spectrin beta chain, non-erythrocytic 1 (from UniProt Q01082-3 1-2155)
19 | binds | Isoform 3 of Unconventional myosin-Ic (from UniProt O00159-3 1-1044)
20 | binds | Isoform 4 of 40 S ribosomal protein S24 (from UniProt P62847-4 1-289)
21 | binds | Isoform 4 of LIM domain and actin-binding protein 1 (from UniProt Q9UHB6-4 1-760)
22 | binds | Major vault protein (from UniProt Q14764 1-893)
23 | binds | Myosin-9 (from UniProt P35579 1-1960)
24 | binds | Neurabin-2 (from UniProt Q96SB3 1-817)
25 | binds | Protein arginine N-methyltransferase 5 (from UniProt O14744 1-637)
26 | binds | Serine/threonine-protein kinase 38 (from UniProt Q15208 1-465)
27 | binds | Spectrin alpha chain, non-erythrocytic 1 (from UniProt Q13813 1-2472)
28 | binds | Splicing factor 3B subunit 3 (from UniProt Q15393 1-1217)
29 | binds | Supervillin (from UniProt O95425 1-2214)
30 | binds | Talin-1 (from UniProt Q9Y490 1-2541)
31 | binds | Thrombospondin-1 (from UniProt P07996 19-1170)
32 | binds | Ubiquitin-like protein ISG15 (from UniProt P05161 1-157)
33 | binds | Zinc finger protein 185 (from UniProt O15231 1-689)

Continued, substance first:

Row | Substance | binding
34 | 6-phosphofructo-2-kinase (from UniProt Q16875 1-520) | binds
35 | 26 S proteasome non-ATPase regulatory subunit 2 (from UniProt Q13200 1-908) | binds
36 | ADP-ribosylation factor 3 (from UniProt P61204 1-181) | binds
37 | ADP-ribosylation factor 4 (from UniProt P18085 1-180) | binds
38 | ATP synthase subunit alpha, mitochondrial (from UniProt P25705 44-553) | binds
39 | ATP-dependent RNA helicase DDX3X (from UniProt O00571 1-662) | binds
40 | Alpha-actinin-4 (from UniProt O43707 1-911) | binds
41 | Bcl-2-associated transcription factor 1 (from UniProt Q9NYF8 1-920) | binds
42 | Cofilin-1 (from UniProt P23528 1-166) | binds
43 | Cytoskeleton-associated protein 4 (from UniProt Q07065 1-602) | binds
44 | Desmoglein-1 (from UniProt Q02413 50-1049) | binds
45 | Desmoplakin (from UniProt P15924 1-2871) | binds
46 | Drebrin (from UniProt Q16643 1-649) | binds
47 | Endoplasmin (from UniProt P14625 22-803) | binds
48 | Eukaryotic initiation factor 4A-I (from UniProt P60842 1-406) | binds
49 | Filamin-B (from UniProt O75369 1-2602) | binds

Row | Substance | binding
50 | Glyceraldehyde-3-phosphate dehydrogenase (from UniProt P04406 1-335) | binds
51 | Heterogeneous nuclear ribonucleoprotein K (from UniProt P61978 1-463) | binds
52 | Hornerin (from UniProt Q86YZ3 1-2850) | binds
53 | Isoform 2 of Tropomyosin alpha-3 chain (from UniProt P06753-2 1-248) | binds
54 | Methylosome protein 50 (from UniProt Q9BQA1 1-342) | binds
55 | Myosin light polypeptide 6 (from UniProt P60660 1-151) | binds
56 | Myosin regulatory light chain 12B (from UniProt O14950 1-172) | binds
57 | Myosin-10 (from UniProt P35580 1-1976) | binds
58 | Nestin (from UniProt P48681 1-1621) | binds
59 | Plasminogen activator inhibitor 1 (from UniProt P05121 24-402) | binds
60 | Putative elongation factor 1-alpha-like 3 (from UniProt Q5VTE0 1-462) | binds
61 | Pyruvate kinase PKM (from UniProt P14618 1-531) | binds
62 | Serine/threonine-protein kinase 38-like (from UniProt Q9Y2H1 1-464) | binds
63 | Tubulin alpha-1C chain (from UniProt Q9BQE3 1-449) | binds
64 | Tubulin beta chain (from UniProt P07437 1-444) | binds
65 | Vimentin (from UniProt P08670 1-466) | binds
